Taken from: PubChem BioAssay AID1224828 (NIAID, 2016)
The deposit covers about 17,000 reagents; below is a part drawn at random. Of all reagents, 762 (4.5%) are marked active. 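Active calls include both raised and lowered p65 entry, mostly lowered; wells with fewer than 50 cells lack a z-score.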 Raw values vary from plate to plate and are shown uncorrected. Unmarked entries are inactive.

Aim: 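Find genes required for NF-kappaB p65 moving into the nucleus after LPS in mouse macrophages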 (primary screen)
Cell system: mouse RAW264.7 G9 macrophage reporter cells (GFP-p65, Tnf promoter-mCherry)
Reagents: siRNA pool against mouse genes, 100 nM
Duration: 2 days siRNA transfection, then 40 min LPS before fixation
Conditions: LPS (Salmonella minnesota R595) at 10 ng/ml
Detection: 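Microscopy ratio of nuclear to perinuclear-ring GFP-p65 signal, scaled to the plate median; gene score is the average of two replicate robust z-scores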
Reading the numbers: p65 translocation robust z-score: higher = more nuclear NF-kappaB p65 after LPS than the plate median; nuclear/cytoplasmic p65 ratio: higher = more nuclear NF-kappaB p65
Rule for the call: 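Active if robust z is above 3.3 (negative regulators) or below -1.56, the Tlr4 control median (positive regulators); activity score 50 or more; control wells not called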
Meaning of the calls: active = hit (p65 shift raised or lowered); inactive = no clear change

| gene | p65 translocation robust z-score | nuclear/cytoplasmic p65 ratio, rep 1 | nuclear/cytoplasmic p65 ratio, rep 2 | low cell count flag |
| --- | --- | --- | --- | --- |
| Eps8l3 | -0.25 | 1.49 | 1.49 | enough cells to score |
| Camk1 | 0.16 | 1.66 | 1.45 | enough cells to score |
| Acot2 | – | 1.44 | 1.3 | fewer than 50 cells per well; well left out of scoring |
| Kcnt1 | 0.35 | 1.48 | 1.37 | enough cells to score |
| Coro1b | -1.14 | 1.44 | 1.56 | enough cells to score |
| Kitl | -0.4 | 1.42 | 1.33 | enough cells to score |
| Nlrc4 | -0.41 | 1.59 | 1.52 | enough cells to score |
| Glb1l2 | 3.07 | 1.74 | 2.06 | enough cells to score |
| Or4a79 | 1.07 | 1.75 | 1.58 | enough cells to score |
| Gm20735 | -0.15 | 1.36 | 1.57 | enough cells to score |
| Tab3 | -1.07 | 1.26 | 1.18 | enough cells to score |
| Ankrd34c | -0.75 | 1.47 | 1.42 | enough cells to score |
| Or5aq6 | 1.29 | 1.89 | 1.7 | enough cells to score |
| Nme2 | -1.39 | 1.37 | 1.2 | enough cells to score |
| Ccnd1 | -0.09 | 1.45 | 1.37 | enough cells to score |
| Or1o11 | -0.53 | 1.67 | 1.42 | enough cells to score |
| Cep128 | 0.9 | 1.42 | 1.64 | enough cells to score |
| Sox21 | 0.04 | 1.47 | 1.2 | enough cells to score |
| Chst10 | 0.11 | 1.61 | 1.8 | enough cells to score |
| Or1e19 | 0.15 | 1.56 | 1.44 | enough cells to score |
| Amz1 | 0.08 | 1.49 | 1.5 | enough cells to score |
| M1ap | -1.59 (active) | 1.33 | 1.33 | enough cells to score |
| Cbln3 | – | 1.32 | 1.3 | fewer than 50 cells per well; well left out of scoring |
| Tbc1d14 | -1.5 | 1.41 | 1.27 | enough cells to score |
| Penk | 0.35 | 1.43 | 1.52 | enough cells to score |
| Vmn1r229 | -0.42 | 1.33 | 1.18 | enough cells to score |
| Mipol1 | 0.88 | 1.65 | 1.37 | enough cells to score |
| Lsm14b | 0.25 | 1.39 | 1.64 | enough cells to score |
| Aldh1l2 | -1.29 | 1.3 | 1.39 | enough cells to score |
| Or10aa3 | – | 1.72 | 1.25 | fewer than 50 cells per well; well left out of scoring |
| Polr2a | – | 0 | 1.1 | fewer than 50 cells per well; well left out of scoring |
| Or11i1 | – | 1.46 | 1.18 | fewer than 50 cells per well; well left out of scoring |
| Gulp1 | -0.65 | 1.32 | 1.32 | enough cells to score |
| Usp12 | 0.12 | 1.58 | 1.47 | enough cells to score |
| Zfp11 | 0.17 | 1.32 | 1.37 | enough cells to score |
| Slk | – | 2.21 | 2.03 | fewer than 50 cells per well; well left out of scoring |
| Rce1 | -0.93 | 1.38 | 1.39 | enough cells to score |
| Trmt11 | -0.74 | 1.3 | 1.37 | enough cells to score |
| Tinf2 | 0.01 | 1.52 | 1.53 | enough cells to score |
| Sox9 | – | 1.27 | 1.25 | fewer than 50 cells per well; well left out of scoring |
| Susd2 | – | 1.33 | 1.24 | fewer than 50 cells per well; well left out of scoring |
| Timp1 | 1.7 | 1.75 | 1.77 | enough cells to score |
| Keap1 | – | 1.57 | 1.82 | fewer than 50 cells per well; well left out of scoring |
| Otop1 | 0.06 | 1.41 | 1.28 | enough cells to score |
| B230220B15Rik | -0.64 | 1.43 | 1.49 | enough cells to score |
| Lpar5 | -1.4 | 1.26 | 1.43 | enough cells to score |

A portion from the list above, for reference:
| gene | p65 translocation robust z-score | nuclear/cytoplasmic p65 ratio, rep 1 | nuclear/cytoplasmic p65 ratio, rep 2 | low cell count flag |
| --- | --- | --- | --- | --- |
| Coro1b | -1.14 | 1.44 | 1.56 | enough cells to score |
| Kitl | -0.4 | 1.42 | 1.33 | enough cells to score |
| Nlrc4 | -0.41 | 1.59 | 1.52 | enough cells to score |
| Glb1l2 | 3.07 | 1.74 | 2.06 | enough cells to score |
| Or4a79 | 1.07 | 1.75 | 1.58 | enough cells to score |

The listing continues.
| gene | p65 translocation robust z-score | nuclear/cytoplasmic p65 ratio, rep 1 | nuclear/cytoplasmic p65 ratio, rep 2 | low cell count flag |
| --- | --- | --- | --- | --- |
| Or52e7 | 1.89 | 1.7 | 1.62 | enough cells to score |
| Ckmt1 | -0.09 | 1.68 | 1.37 | enough cells to score |
| Ift70a1 | – | 1.1 | 1.36 | fewer than 50 cells per well; well left out of scoring |
| Ywhah | – | 1.55 | 1.14 | fewer than 50 cells per well; well left out of scoring |
| Comtd1 | -0.79 | 1.44 | 1.67 | enough cells to score |
| Surf4 | 0.94 | 1.53 | 1.35 | enough cells to score |
| Decr2 | 0.15 | 1.53 | 1.37 | enough cells to score |
| Ino80c | 0.63 | 1.6 | 1.96 | enough cells to score |
| Suco | 0.94 | 1.7 | 1.88 | enough cells to score |
| Kat2b | 0.11 | 1.49 | 1.4 | enough cells to score |
| Mapk4 | 0.46 | 1.5 | 1.43 | enough cells to score |
| Srrm3 | – | 1.13 | 1.42 | fewer than 50 cells per well; well left out of scoring |
| Fmo1 | 0.3 | 1.46 | 1.42 | enough cells to score |
| Btbd35f1 | -0.06 | 1.38 | 1.42 | enough cells to score |
| Skor1 | – | 1.28 | 1.63 | fewer than 50 cells per well; well left out of scoring |
| Or1j10 | -1.81 (active) | 1.3 | 1.22 | enough cells to score |
| Emc9 | 0.54 | 1.53 | 1.61 | enough cells to score |
| Plod1 | 0.03 | 1.49 | 1.42 | enough cells to score |
| Cyp2d22 | -0.67 | 1.34 | 1.33 | enough cells to score |
| Lrp4 | -0.73 | 1.65 | 1.4 | enough cells to score |
| Rps3 | -2.05 (active) | 1.23 | 1.17 | enough cells to score |
| Tomm40 | – | 1.31 | 0 | fewer than 50 cells per well; well left out of scoring |
| Cenpp | – | 1.3 | 1.56 | fewer than 50 cells per well; well left out of scoring |
| Morc4 | -0.8 | 1.36 | 1.26 | enough cells to score |
| Hamp2 | -1.39 | 1.16 | 1.14 | enough cells to score |
| Chchd3 | -0.26 | 1.56 | 1.73 | enough cells to score |
| Crtap | -1.22 | 1.31 | 1.68 | enough cells to score |
| Adgra2 | 0.36 | 1.54 | 1.65 | enough cells to score |
| Wnt16 | 1.06 | 1.46 | 1.37 | enough cells to score |
